These are yes or no findings as the source states them, for the method shown. For some assays here: In cells and extracts the contact can be indirect. Some binding calls cover weakened binding; strength is not graded here. For some assays here: Tags and fused reporters may be left off the sequences shown.

Experiment [1] has as its target T1, Escherichia coli BcsG with C-terminal dodeca-histidine tag (Escherichia coli) (UniProt P37659).
T1 sequence: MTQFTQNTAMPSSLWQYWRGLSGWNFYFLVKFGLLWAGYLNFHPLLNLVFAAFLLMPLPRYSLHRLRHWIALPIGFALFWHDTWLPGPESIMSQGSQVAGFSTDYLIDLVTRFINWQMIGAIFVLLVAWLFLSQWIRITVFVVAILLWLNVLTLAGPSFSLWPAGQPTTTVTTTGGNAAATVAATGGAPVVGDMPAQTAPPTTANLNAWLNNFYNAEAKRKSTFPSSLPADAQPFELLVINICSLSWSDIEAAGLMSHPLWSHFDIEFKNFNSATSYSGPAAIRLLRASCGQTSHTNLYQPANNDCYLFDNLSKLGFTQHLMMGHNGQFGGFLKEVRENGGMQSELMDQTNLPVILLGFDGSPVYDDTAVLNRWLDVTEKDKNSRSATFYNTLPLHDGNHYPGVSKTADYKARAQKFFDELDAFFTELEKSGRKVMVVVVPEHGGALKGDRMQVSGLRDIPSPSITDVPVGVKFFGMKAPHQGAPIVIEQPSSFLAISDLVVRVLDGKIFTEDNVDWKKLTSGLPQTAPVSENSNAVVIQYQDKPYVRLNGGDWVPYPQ
Kind of experiment: pull-down + SEC; Strep-tagged BcsA NTD and His-tagged BcsG co-expressed in Ec C43 (DE3); membranes solubilised in LMNG/DMNG/CHS; tandem affinity purification on Ni-NTA then Strep-Tactin, then Superose 6 SEC; identities confirmed by Western blotting and tandem mass spectrometry.

For experiment [2], the target named is T2, full-length Escherichia coli BcsC (Escherichia coli) (UniProt P37650).
T2 sequence: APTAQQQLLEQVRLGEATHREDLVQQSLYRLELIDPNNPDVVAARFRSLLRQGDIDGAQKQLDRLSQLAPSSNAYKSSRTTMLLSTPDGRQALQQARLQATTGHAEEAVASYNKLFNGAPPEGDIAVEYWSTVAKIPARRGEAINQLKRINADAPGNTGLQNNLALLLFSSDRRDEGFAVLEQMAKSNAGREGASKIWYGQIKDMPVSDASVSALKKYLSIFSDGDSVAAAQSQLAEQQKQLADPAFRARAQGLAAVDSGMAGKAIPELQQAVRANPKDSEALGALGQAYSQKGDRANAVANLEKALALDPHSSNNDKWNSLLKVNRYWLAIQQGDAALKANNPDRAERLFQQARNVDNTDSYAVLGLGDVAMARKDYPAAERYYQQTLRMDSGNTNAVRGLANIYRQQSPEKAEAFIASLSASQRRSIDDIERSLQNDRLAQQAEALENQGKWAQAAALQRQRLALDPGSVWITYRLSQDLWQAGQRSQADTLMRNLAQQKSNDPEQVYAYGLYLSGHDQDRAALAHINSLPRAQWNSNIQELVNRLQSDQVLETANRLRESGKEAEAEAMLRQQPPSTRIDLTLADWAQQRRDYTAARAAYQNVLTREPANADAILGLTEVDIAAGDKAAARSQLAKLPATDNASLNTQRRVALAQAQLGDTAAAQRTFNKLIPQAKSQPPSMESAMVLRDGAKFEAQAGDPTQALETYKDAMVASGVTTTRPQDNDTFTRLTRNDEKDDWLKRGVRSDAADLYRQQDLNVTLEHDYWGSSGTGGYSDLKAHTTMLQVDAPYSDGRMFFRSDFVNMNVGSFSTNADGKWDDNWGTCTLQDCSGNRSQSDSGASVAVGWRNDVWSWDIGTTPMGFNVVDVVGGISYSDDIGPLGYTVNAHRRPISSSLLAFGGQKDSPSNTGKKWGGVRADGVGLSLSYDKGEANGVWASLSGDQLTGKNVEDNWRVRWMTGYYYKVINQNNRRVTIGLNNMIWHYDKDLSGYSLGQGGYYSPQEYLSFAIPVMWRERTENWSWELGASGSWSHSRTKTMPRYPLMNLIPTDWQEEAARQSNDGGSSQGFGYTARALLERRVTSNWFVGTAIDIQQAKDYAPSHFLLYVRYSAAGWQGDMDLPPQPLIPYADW
Kind of experiment: cryo-EM structure; BcsC incubated with purified BcsZ at a molar 1:1.5; single particle analysis, about 2.7 Å for BcsZ; both purified.

B1: N-terminal domain of Escherichia coli BcsA (first 94 residues), Strep-tagged (domain or fragment, UniProt P37653 1-94)
chain: MSILTRWLLIPPVNARLIGRYRDYRRHGASAFSATLGCFWMILAWIFIPLEHPRWQRIRAEHKNLYPHINASRPRPLDPVRYLIQTCWLLIGAS
As for B1, the binding entry in experiment [1] is recorded as “binds”.

B2: Escherichia coli cellulase BcsZ (enzyme)
chain: ACTWPAWEQFKKDYISQEGRVIDPSDARKITTSEGQSYGMFSALAANDRAAFDNILDWTQNNLAQGSLKERLPAWLWGKKENSKWEVLDSNSASDGDVWMAWSLLEAGRLWKEQRYTDIGSALLKRIAREEVVTVPGLGSMLLPGKVGFAEDNSWRFNPSYLPPTLAQYFTRFGAPWTTLRETNQRLLLETAPKGFSPDWVRYEKDKGWQLKAEKTLISSYDAIRVYMWVGMMPDSDPQKARMLNRFKPMATFTEKNGYPPEKVDVATGKAQGKGPVGFSAAMLPFLQNRDAQAVQRQRVADNFPGSDAYYNYVLTLFGQGWDQHRFRFSTKGELLPDWGQECANSH
notes: End of the His tag read from the plasmid's name; also called Ec BcsZ
For B2, in experiment [2], the binding result is “no binding (tested: molar 1:1.5)”.
